# Values of other authors as cited in patent publication US20110208161A1, “INT[…] […] TO THE CENTRAL NERVOUS SYSTEM” (priority 2009, published 2011).
# Settings: administration to the lateral ventricle, dose 0.01 mg/kg; patients with severe intractable cancer pain
smiles,measurement,value
CN1CC[C@]23c4c5ccc(O)c4O[C@H]2[C@@H](O)C=C[C@H]3[C@H]1C5.Cl [morphine hydrochloride],duration of analgesic effect,about 24 hours
